Results as given in patent US20100015126A1, “Methods of Binding of Cross-Beta Structures By Chaperones” (priority 2006, published 2010).

Test: Limulus Amebocyte Lysate (LAL) endotoxin assay
Conditions: for Endotoxin level (EU): stock solutions

| Substance | Endotoxin level (EU) | Estimated LPS content (estimated with LPS standard curve) |
| --- | --- | --- |
| tPA: tissue-type plasminogen activator (Actilyse, Boehringer-Ingelheim) | 2.7 EU |  |
| HbAGE: human haemoglobin glycated with glucose-6-phosphate for 75 weeks | 0.122 EU | <0.25 ng/mL |
